Results on 2 substances are retold here after PMC12123037, “Cleavage of CAD by caspase-3 determines the cancer cell fate during chemotherapy” (Nature Communications, 2025).

Protein sequences, listed by entry. Tags and fused reporters are not part of them. Lines headed by an entry give the natural chain unless they say otherwise; changes in a name come on top.
UniProt P27708: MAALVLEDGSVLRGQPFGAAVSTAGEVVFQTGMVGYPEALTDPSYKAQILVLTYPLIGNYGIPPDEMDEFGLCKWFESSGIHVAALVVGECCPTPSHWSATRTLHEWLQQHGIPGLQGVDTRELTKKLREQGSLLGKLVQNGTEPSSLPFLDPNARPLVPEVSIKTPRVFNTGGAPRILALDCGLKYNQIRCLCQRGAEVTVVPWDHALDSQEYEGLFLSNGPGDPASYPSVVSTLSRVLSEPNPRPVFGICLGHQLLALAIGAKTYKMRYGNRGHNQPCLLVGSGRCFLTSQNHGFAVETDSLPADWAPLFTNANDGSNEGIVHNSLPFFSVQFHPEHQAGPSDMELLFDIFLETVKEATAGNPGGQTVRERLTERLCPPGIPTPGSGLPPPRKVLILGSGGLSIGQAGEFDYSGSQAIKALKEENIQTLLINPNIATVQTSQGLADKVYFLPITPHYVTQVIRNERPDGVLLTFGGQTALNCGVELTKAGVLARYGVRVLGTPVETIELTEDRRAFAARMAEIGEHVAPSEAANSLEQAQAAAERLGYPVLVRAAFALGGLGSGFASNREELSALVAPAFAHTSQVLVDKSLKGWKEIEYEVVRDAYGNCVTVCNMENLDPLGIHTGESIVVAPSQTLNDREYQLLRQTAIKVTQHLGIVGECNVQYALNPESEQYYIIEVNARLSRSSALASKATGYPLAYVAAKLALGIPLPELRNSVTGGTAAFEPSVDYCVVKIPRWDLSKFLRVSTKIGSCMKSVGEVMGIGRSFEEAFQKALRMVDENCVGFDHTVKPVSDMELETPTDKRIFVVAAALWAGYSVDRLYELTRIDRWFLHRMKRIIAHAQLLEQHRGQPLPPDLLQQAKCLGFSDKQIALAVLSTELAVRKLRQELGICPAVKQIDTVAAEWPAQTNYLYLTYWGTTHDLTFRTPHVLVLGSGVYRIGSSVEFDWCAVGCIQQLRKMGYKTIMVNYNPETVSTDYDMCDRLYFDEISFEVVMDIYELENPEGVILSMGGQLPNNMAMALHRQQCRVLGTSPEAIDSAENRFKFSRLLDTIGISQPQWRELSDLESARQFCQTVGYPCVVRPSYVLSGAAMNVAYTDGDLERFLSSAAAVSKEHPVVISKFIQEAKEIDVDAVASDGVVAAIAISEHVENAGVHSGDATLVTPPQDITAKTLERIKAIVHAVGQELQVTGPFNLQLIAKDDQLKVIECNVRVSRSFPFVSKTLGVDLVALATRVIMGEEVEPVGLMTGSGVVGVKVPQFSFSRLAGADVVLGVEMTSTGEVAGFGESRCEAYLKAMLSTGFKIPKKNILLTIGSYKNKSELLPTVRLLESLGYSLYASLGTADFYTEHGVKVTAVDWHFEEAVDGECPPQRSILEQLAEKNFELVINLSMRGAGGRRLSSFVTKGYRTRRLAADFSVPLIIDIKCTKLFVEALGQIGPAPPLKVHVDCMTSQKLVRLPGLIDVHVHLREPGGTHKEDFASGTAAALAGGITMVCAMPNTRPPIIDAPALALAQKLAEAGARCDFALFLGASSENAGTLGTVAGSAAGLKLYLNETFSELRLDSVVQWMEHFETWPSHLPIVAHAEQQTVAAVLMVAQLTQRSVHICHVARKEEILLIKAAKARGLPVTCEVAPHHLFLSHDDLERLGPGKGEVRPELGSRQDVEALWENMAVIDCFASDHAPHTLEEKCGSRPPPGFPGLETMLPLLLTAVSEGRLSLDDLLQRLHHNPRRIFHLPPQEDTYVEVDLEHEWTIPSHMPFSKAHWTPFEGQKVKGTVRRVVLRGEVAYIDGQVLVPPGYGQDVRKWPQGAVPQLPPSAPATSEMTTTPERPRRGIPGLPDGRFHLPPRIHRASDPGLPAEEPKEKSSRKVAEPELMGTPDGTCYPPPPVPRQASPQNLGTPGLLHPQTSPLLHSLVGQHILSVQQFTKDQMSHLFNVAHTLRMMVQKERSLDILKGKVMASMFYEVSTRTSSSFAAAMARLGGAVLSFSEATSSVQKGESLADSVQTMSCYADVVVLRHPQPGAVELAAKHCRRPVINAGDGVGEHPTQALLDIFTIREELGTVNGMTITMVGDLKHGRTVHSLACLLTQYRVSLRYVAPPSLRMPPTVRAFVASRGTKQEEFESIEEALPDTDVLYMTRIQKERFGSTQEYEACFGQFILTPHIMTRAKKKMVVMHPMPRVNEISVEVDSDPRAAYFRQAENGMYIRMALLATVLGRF
UniProt P17174: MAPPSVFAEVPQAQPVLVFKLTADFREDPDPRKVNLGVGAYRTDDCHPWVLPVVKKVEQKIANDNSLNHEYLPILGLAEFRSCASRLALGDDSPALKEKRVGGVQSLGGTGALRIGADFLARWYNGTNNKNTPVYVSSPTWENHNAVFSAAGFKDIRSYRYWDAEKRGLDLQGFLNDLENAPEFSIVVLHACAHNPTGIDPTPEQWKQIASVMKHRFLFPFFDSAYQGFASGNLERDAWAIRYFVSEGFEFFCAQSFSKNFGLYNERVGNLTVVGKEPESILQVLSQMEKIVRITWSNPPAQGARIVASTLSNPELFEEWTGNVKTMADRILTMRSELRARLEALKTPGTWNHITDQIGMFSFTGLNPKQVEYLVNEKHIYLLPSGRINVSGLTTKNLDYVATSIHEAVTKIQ
UniProt P11172: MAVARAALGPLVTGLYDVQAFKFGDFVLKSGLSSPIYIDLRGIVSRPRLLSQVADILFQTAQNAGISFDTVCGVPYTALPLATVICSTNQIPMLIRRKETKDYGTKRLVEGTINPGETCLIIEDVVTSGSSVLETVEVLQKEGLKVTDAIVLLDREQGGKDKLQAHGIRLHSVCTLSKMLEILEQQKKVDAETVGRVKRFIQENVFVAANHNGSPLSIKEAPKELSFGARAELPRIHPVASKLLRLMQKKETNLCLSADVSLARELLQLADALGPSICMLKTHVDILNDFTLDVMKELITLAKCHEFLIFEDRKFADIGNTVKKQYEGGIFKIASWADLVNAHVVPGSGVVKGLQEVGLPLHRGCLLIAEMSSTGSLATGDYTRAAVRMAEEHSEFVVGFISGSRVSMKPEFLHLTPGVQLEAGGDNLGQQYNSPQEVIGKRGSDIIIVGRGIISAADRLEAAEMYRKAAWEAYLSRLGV

For test [1], the target named is Flag-tagged wildtype CAD (Carbamoyl-phosphate synthetase II, Aspartate transcarbamylase, and Dihydroorotase) (human) (UniProt P27708). Put plainly: co-IP; Flag-tagged CAD precipitated from lysates of transfected cells with anti-FLAG M2 magnetic beads, 4 °C overnight; 20 mM Tris-HCl pH 7.4, 150 mM NaCl, 1 mM EDTA, 1% Triton X-100; immunoblot (general IP methods; legend of Supplementary Fig. 4b not shown). (A western blot detects proteins with antibodies after separation by electrophoresis.)

For test [2], the target named is Flag-tagged CAD-D1371A (human) (UniProt P27708). Described as above.

No constants are given. Whether binding was seen depends on the method and setting. In cells and extracts the contact can be indirect. Some binding calls cover weakened binding; strength is not graded here.

“glutamate oxaloacetate transaminase 1 (GOT1) (from UniProt P17174 1-413) (enzyme)”: the binding entry in test [1] and in test [2] was “binds” throughout.
Turning to “uridine 5'-monophosphate synthase (UMPS) (from UniProt P11172 1-480) (enzyme)”, the binding result in test [1] and in test [2] was “binds” in each case.
